Reference: PMC10368641, “Expulsion mechanism of the substrate-translocating subunit in ECF transporters” (Nature Communications, 2023)

The chains behind the UniProt entries cited, without tags or fusion partners. Where a name states a change or a piece, a line headed by the entry shows the natural chain unless it says otherwise.
UniProt Q1GBJ0: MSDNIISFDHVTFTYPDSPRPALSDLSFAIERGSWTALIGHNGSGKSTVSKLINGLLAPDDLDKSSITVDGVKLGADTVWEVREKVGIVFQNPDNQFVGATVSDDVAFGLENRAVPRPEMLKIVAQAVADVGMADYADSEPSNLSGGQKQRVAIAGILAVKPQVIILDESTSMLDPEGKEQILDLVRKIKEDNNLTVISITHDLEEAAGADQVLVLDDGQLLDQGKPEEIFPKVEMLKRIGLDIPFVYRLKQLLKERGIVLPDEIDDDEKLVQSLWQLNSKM
UniProt Q1GBI9: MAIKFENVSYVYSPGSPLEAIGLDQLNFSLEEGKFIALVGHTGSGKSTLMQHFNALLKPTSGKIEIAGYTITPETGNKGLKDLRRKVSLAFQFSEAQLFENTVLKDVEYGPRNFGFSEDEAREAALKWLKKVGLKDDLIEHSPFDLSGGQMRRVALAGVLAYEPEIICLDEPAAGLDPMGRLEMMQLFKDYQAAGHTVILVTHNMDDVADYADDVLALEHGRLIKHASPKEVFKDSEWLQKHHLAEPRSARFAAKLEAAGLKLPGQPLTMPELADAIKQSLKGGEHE

Target: EcfA E169Q, Walker B mutant (tag removed) (L. delbrueckii) (UniProt Q1GBJ0)
Assay: co-purification (Nickel-Sepharose, on-column TEV release, SEC); single mutant solitary ECF modules from DDM-solubilised E. coli membrane vesicles, 4 °C; held by the His10 tag, released by TEV protease, Superdex 200 in 20 mM Tris pH 8.0, 150 mM NaCl, 0.017% DDM

- binding: binds
Substance: EcfA’, ATPase subunit of the ECF module (from UniProt Q1GBI9)

These are yes or no findings as the source states them, for the method shown. Binding seen in cells or lysates may run through a third protein. Binding can be weak; no strength is given.
